Assay: Filter efficiency of small scale hemofiltration cartridge removing chemotherapeutic agents from circulating blood
Conditions: bovine blood 100 mL/min
[1] = Average over time points, single drug
[2] = time 5 (samples every 5 minutes), single drug infused over 30 minutes

Row | SMILES | Filter efficiency [1] | Filter efficiency [2] | Filter efficiency (time 10, single drug) | Filter efficiency (time 15, single drug) | Filter efficiency (time 20, single drug) | Filter efficiency (time 30, single drug) | Filter efficiency (time 25, single drug)
1 | N.N.O=C([O-])C1(C(=O)[O-])CCC1.[Pt+2] [Carboplatin] | 97.54 | 98.96 | 97.81 | 97.54 | 97.55 | 95.95 | –
2 | COc1cccc2c1C(=O)c1c(O)c3c(c(O)c1C2=O)C[C@@](O)(C(=O)CO)C[C@@H]3O[C@H]1C[C@H](N)[C@H](O)[C@H](C)O1 [Doxorubicin] | 97.33 | 98.52 | 97.78 | – | 97.19 | 96.47 | 96.36
3 | Nc1ccn([C@@H]2O[C@H](CO)[C@@H](O)C2(F)F)c(=O)n1 [Gemcitabine] | 99.25 | 98.61 | – | 99.36 | 99.42 | 98.98 | 99.42
4 | CC(=O)[C@]1(O)Cc2c(O)c3c(c(O)c2[C@@H](O[C@H]2C[C@H](N)[C@H](O)[C@H](C)O2)C1)C(=O)c1ccccc1C3=O [Idarubicin] | 58.80 | 75.43 | 67.00 | 58.59 | 52.69 | 51.02 | 48.06
5 | N[C@@H](Cc1ccc(N(CCCl)CCCl)cc1)C(=O)O [Melphalan] | 98.03 | – | 98.59 | 97.86 | 97.63 | 97.04 | –
